Results on 16 targets are retold here after the supplement of paper PMC10849652.

Protein sequences, listed by entry. Tags and fused reporters are not part of them. Lines headed by an entry give the natural chain unless they say otherwise; changes in a name come on top.
UniProt P01100, whole entry, looked up: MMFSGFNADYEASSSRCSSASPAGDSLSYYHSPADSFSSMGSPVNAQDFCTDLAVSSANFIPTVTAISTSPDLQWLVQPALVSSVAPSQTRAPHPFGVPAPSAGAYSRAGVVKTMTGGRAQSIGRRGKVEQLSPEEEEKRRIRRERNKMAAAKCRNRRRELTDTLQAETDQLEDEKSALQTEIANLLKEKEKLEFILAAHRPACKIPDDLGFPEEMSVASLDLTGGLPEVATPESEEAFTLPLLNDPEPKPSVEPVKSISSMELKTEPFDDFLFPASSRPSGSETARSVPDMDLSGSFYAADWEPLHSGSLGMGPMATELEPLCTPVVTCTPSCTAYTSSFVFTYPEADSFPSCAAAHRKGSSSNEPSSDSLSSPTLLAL
UniProt Q96NB1: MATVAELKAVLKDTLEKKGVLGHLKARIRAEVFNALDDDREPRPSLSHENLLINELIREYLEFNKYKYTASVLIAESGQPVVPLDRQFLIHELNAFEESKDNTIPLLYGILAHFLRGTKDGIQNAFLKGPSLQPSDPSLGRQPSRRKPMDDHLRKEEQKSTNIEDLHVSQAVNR
UniProt Q9Y324: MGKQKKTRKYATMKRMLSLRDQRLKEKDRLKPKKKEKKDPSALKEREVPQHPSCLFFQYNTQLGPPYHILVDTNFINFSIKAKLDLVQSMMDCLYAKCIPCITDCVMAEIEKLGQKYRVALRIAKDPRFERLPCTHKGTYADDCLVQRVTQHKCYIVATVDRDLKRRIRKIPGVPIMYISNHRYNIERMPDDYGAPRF
UniProt Q14517: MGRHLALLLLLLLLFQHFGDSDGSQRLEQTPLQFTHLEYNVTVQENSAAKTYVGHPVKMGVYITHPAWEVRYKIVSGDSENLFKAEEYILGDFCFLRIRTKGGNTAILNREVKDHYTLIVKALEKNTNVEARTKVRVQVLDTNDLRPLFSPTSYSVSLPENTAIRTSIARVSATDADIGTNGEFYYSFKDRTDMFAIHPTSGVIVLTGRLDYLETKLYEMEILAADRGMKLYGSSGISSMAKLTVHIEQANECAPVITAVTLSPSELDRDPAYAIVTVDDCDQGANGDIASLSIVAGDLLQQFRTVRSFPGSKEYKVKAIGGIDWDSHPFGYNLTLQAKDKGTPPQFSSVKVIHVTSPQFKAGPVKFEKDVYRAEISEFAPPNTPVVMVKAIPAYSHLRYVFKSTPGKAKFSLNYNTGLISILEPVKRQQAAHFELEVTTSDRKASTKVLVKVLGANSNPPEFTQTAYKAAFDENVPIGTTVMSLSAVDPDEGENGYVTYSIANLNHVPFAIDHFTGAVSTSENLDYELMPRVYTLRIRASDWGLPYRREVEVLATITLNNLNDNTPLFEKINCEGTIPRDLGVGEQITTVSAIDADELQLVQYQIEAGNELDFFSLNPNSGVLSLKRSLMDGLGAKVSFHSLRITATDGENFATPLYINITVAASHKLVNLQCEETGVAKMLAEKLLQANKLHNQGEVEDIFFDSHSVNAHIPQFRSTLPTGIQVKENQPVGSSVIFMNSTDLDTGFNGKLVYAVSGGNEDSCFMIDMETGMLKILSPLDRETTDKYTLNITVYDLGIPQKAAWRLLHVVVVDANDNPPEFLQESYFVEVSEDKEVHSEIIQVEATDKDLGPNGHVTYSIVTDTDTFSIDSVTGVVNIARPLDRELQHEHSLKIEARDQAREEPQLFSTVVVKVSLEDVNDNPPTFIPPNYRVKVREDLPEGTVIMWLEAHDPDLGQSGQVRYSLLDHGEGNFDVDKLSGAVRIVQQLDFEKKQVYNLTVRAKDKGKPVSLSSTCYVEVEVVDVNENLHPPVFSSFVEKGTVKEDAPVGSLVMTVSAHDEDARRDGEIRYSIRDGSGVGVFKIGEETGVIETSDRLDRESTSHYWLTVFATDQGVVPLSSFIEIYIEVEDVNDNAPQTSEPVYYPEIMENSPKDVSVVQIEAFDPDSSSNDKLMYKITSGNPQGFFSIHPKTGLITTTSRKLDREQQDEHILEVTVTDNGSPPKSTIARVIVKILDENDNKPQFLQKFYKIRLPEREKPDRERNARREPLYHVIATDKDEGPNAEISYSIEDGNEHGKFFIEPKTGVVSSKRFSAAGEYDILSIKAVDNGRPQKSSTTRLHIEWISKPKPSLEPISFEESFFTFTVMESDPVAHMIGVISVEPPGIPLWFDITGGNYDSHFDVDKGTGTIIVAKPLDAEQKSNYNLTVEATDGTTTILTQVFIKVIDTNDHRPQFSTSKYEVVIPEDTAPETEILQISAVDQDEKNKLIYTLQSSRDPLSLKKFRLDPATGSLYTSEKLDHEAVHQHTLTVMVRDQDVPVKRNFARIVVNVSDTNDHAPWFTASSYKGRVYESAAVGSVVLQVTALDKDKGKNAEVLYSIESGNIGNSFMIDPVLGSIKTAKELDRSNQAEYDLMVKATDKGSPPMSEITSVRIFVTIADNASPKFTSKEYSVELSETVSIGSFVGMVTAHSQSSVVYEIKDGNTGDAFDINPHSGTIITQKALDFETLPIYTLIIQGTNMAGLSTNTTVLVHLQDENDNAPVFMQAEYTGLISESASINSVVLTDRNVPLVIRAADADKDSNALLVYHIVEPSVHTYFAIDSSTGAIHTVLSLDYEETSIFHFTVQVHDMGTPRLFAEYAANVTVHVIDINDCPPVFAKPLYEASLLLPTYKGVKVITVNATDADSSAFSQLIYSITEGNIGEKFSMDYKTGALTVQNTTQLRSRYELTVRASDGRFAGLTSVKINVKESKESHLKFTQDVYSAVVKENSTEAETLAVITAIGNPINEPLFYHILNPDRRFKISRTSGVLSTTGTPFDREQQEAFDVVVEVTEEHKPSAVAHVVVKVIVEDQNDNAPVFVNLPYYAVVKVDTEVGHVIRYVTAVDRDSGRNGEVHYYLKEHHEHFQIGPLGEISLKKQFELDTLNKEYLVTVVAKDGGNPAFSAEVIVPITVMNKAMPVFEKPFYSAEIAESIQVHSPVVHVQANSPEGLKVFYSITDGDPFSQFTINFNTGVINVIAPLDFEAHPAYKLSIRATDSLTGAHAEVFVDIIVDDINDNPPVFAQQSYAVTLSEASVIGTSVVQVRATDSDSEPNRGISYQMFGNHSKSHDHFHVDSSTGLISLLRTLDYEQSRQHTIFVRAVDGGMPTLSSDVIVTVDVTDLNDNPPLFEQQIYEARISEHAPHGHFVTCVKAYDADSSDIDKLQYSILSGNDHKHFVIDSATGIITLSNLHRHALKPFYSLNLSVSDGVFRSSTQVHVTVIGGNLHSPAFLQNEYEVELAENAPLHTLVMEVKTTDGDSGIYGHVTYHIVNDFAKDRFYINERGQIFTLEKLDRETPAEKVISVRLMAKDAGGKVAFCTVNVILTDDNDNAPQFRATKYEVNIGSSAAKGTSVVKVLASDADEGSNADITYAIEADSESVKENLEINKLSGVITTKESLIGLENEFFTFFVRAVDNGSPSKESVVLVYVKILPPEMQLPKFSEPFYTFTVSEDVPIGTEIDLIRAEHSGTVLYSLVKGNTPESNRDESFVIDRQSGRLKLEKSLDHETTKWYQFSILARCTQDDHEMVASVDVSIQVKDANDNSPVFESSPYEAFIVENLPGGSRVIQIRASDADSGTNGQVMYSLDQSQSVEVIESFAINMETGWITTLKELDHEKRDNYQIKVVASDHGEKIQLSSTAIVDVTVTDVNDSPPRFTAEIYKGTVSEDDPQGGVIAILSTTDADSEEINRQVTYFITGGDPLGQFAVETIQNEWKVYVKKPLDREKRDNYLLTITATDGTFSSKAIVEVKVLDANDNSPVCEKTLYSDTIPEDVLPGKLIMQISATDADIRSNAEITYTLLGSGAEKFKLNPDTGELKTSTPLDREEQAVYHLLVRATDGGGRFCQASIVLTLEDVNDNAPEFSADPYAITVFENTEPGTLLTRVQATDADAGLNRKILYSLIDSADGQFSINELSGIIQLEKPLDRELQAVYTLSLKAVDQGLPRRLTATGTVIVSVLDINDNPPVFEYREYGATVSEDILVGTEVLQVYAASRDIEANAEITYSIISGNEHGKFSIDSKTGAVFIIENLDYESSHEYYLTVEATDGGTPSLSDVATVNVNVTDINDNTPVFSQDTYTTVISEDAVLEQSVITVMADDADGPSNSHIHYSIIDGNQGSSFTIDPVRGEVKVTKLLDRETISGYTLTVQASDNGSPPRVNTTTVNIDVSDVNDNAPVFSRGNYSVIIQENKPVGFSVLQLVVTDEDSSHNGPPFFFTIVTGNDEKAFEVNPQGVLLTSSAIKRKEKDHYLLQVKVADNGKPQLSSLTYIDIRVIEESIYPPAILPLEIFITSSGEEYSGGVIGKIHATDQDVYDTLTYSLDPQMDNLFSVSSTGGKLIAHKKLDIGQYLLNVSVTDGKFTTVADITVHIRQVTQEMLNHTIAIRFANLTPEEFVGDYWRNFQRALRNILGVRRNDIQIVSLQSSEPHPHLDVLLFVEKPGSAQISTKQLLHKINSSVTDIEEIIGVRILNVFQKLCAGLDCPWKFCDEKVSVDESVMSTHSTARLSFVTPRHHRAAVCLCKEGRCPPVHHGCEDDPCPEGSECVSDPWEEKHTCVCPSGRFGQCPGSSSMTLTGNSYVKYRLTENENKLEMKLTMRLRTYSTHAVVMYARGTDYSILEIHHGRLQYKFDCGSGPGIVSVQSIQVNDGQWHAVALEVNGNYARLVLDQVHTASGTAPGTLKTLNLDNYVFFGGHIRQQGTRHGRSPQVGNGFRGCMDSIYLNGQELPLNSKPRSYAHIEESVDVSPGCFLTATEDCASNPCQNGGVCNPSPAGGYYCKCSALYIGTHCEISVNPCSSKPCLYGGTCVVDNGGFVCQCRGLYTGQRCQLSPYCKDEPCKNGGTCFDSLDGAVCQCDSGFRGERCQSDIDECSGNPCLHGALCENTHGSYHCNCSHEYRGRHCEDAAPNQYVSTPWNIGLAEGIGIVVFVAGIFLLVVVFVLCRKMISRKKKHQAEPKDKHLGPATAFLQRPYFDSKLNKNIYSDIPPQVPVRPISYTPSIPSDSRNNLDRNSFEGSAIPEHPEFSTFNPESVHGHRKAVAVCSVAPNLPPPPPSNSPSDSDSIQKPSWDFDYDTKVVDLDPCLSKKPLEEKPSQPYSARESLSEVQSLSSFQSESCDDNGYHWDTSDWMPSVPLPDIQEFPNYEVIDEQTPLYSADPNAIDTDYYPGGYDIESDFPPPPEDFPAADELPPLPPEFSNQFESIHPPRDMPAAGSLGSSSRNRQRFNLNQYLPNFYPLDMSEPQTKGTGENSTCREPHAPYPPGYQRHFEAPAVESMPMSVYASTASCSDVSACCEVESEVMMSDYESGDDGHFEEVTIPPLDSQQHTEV
UniProt Q4L180: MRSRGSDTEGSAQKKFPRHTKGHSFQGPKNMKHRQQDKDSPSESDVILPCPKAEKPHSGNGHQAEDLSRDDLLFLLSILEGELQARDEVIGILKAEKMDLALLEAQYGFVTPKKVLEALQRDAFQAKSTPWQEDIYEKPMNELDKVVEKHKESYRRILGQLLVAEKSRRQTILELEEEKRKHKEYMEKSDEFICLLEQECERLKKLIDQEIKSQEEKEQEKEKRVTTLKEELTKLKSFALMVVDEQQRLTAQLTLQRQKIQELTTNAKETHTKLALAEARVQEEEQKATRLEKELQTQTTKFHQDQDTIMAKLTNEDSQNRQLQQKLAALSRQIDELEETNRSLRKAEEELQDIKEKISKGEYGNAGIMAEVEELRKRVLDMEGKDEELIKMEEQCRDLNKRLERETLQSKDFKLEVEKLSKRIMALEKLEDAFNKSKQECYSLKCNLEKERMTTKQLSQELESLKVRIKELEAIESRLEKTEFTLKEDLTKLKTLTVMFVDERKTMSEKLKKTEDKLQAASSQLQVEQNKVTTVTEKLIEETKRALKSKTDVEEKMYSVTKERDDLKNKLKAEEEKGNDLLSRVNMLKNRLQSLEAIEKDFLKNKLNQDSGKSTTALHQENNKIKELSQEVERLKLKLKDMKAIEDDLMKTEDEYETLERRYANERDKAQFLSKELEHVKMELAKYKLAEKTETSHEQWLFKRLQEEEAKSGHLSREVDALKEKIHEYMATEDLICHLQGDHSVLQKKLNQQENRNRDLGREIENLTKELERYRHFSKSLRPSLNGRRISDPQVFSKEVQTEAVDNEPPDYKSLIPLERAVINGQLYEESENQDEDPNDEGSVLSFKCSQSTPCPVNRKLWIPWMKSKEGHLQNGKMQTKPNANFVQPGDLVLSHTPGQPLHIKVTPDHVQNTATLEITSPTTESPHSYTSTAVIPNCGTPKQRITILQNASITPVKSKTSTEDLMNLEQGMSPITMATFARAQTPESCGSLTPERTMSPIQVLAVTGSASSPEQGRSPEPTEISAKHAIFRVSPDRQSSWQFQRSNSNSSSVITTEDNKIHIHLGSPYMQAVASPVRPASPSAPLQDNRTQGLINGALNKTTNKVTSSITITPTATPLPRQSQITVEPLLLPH

Assay in all cases: log2 fold change, soluble protein after heating vs DMSO (PISA); higher = thermal stabilisation; K562 lysate, 10 uM; active = over 0.2 and 3.5 SD of the protein, either way, in both replicates (recomputed)
Compound in assay [1]: NCC(=O)Nc1ccc(-n2nc(C(F)(F)F)cc2-c2ccc3c(ccc4ccccc43)c2)cc1
In a few lines: (§1)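 K562 pellets were dounce-homogenised in PBS pH 7.4 with 1 mM MgCl2, and the crude extract at 1 mg/mL protein was treated with 10 μM compound for 30 min. Aliquots were heated for 3 min across 48°C-58°C, pooled, and brought to 0.5% NP-40 at 4°C; soluble protein was the supernatant after 21,000xg for 90 min. Soluble protein was quantified by TMTpro 16plex LC-MS/MS with channel sums equalised, and reported as log2 fold change in thermal stability against DMSO controls, with values from duplicates.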

Compound in the next assay: c1cn2cc(-c3ccc4cn[nH]c4c3)nc(Nc3ccc(N4CCOCC4)cc3)c2n1 [entospletinib]
The procedure, abridged:
as §1

Compound in assay [2]: O=C1NC(=O)C(c2cnc3ccccn23)=C1c1cn2c3c(cc(F)cc13)CN(C(=O)N1CCCCC1)CC2
In a few lines:
as §1

Compound in a further assay: O=C(CCCCCCC(=O)Nc1ccccc1)NO [vorinostat]
In a few lines: as §1

Compound in the next assay: O=C(O)c1ccc2c(c1)nc(Nc1cccc(Cl)c1)c1ccncc12 [silmitasertib]
The procedure, abridged:
as §1

Some of the results follow.

FLII isoform 2 (UniProt Q13045): the figures for the log2 fold change (in assay [1]; in the assay with entospletinib) were inactive: 0.141 and inactive: -0.014, respectively.

Consider FOS (UniProt P01100), for which the log2 fold change with entospletinib is inactive: 0.003.

As to FER isoform 3 (UniProt P16591), the log2 fold change in assay [2] was inactive: 0.

As to FOPNL (UniProt Q96NB1), the log2 fold change in assay [1] was inactive: 0.01; in assay [2], inactive: -0.029; with entospletinib it was inactive: -0.009.

In the case of FCF1 (UniProt Q9Y324), the log2 fold change in assay [2] was inactive: 0.089.

Regarding FANCG (UniProt O15287), the values for the log2 fold change (in assay [1]; in assay [2]; with entospletinib) were inactive: 0.123, inactive: -0.009 and inactive: -0.003, respectively.

As for FMR1 isoform 9 (UniProt Q06787), the log2 fold change with vorinostat is inactive: 0.274; in the assay with silmitasertib it was inactive: -0.091; in assay [2] it was inactive: 0.233.

For FANCE (UniProt Q9HB96), the log2 fold change in assay [2] was inactive: -0.116.

As to FBXW11 (UniProt Q9UKB1), the log2 fold change with vorinostat was inactive: -0.217; with silmitasertib it was inactive: 0.088; in assay [2] it was inactive: 0.015; with entospletinib, inactive: -0.074.

For FKBP10 (UniProt Q96AY3), in the assay with entospletinib, the log2 fold change was inactive: 0.012.

Consider FEN1 (UniProt I3L3E9), for which the log2 fold change was inactive: -0.055 in assay [1] and inactive: -0.089 in the assay with entospletinib.

On to FAT1 (UniProt Q14517), for which the log2 fold change with vorinostat is inactive: -0.229; in the assay with silmitasertib, inactive: 0.077; in assay [2], inactive: -0.196; in the assay with entospletinib, inactive: -0.034.

Turning to FASTKD3 (UniProt Q14CZ7), the log2 fold change in the assay with entospletinib was inactive: 0.008.

Take FBXO11 isoform 5 (UniProt Q86XK2): the figures for the log2 fold change (with vorinostat; with silmitasertib; in assay [2]) were inactive: -0.383, inactive: -0.277 and inactive: 0.054, respectively.

In the case of FANCF (UniProt Q9NPI8), the log2 fold change in assay [2] is inactive: -0.114.

With FILIP1L (UniProt Q4L180), the log2 fold change in the assay with entospletinib was inactive: -0.003.
